Source: patent US20160369115A1, “POLARIZING PLATE COMPOSITION, POLARIZING PLATE PROTECTIVE FILM, POLARIZER, POLARIZING PLATE, LIQUID CRYSTAL DISPLAY DEVICE, AND COMPOUND USED IN THE LIQUID CRYSTAL DISPLAY DEVICE” (FUJIFILM Corporation, priority 2014, published 2016)

What was measured:
[1] = Bleed-out properties in adhesive layer (haze evaluation); conditions: additive in adhesive layer, added amount 10.0 per 100 parts by mass of the polyvinyl alcohol resin, film thickness 5 μm
[2] = Bleed-out properties in polarizer (haze evaluation); conditions: haze of polarizing plate; additive in polarizer, added amount 1.0 per 100 parts by mass of polyvinyl alcohol resin
[3] = Evaluation of durability of polarizing plate, additive in polarizer (Example 2); conditions: added amount 1.0 per 100 parts by mass of polyvinyl alcohol resin, 410 nm
[4] = Evaluation of durability of polarizing plate, additive in adhesive layer (Example 3); conditions: added amount 10.0 per 100 parts by mass of the polyvinyl alcohol resin, film thickness 5 μm; for Durability of polarizer: amount of change of orthogonal transmittance (%) 60° C., 95%, 500 hours / Durability of polarizer: amount of change of orthogonal transmittance (%) 60° C., 95%, 1,000 hours / Durability of polarizer: amount of change of orthogonal transmittance (%) 80° C., Dry 500 hours / Durability of polarizer: amount of change of orthogonal transmittance (%) 80° C., Dry, 1,000 hours: 410 nm

Row | Compound | Bleed out [1] | Bleed out [2] | Durability of polarizer: amount of change of degree of polarization (%) 60° C., 95%, 500 hours [3] | Durability of polarizer: amount of change of degree of polarization (%) 60° C., 95%, 1,000 hours [3] | Durability of polarizer: amount of change of degree of polarization (%) 80° C., Dry, 500 hours [3] | Durability of polarizer: amount of change of degree of polarization (%) 80° C., Dry, 1,000 hours [3] | Durability of polarizer: amount of change of orthogonal transmittance (%) 60° C., 95%, 500 hours [3] | Durability of polarizer: amount of change of orthogonal transmittance (%) 60° C., 95%, 1,000 hours [3] | Durability of polarizer: amount of change of orthogonal transmittance (%) 80° C., Dry 500 hours [3] | Durability of polarizer: amount of change of orthogonal transmittance (%) 80° C., Dry, 1,000 hours [3] | Durability of polarizer: amount of change of degree of polarization (%) 60° C., 95%, 500 hours [4] | Durability of polarizer: amount of change of degree of polarization (%) 60° C., 95%, 1,000 hours [4] | Durability of polarizer: amount of change of degree of polarization (%) 80° C., Dry, 500 hours [4] | Durability of polarizer: amount of change of degree of polarization (%) 80° C., Dry, 1,000 hours [4] | Durability of polarizer: amount of change of orthogonal transmittance (%) 60° C., 95%, 500 hours [4] | Durability of polarizer: amount of change of orthogonal transmittance (%) 60° C., 95%, 1,000 hours [4] | Durability of polarizer: amount of change of orthogonal transmittance (%) 80° C., Dry 500 hours [4] | Durability of polarizer: amount of change of orthogonal transmittance (%) 80° C., Dry, 1,000 hours [4]
1 | O=C([O-])c1ccc(Cc2c(OCOCc3ccccc3)n(-c3ccccc3)c(=O)n(-c3ccccc3)c2=O)cc1.[Na+] [Example compound O] | A (The haze was less than 0.3%.) | A (The haze was less than 0.3%.) | A+ (The amount of change of the degree of polarization before and after the elapse of time was less than 0.05%.) | A+ (The amount of change of the degree of polarization before and after the elapse of time was less than 1.0%.) | A+ (The amount of change of the degree of polarization before and after the elapse of time was less than 0.05%.) | A+ (The amount of change of the degree of polarization before and after the elapse of time was less than 0.1%.) | A+ (The amount of change of the orthogonal transmittance before and after the elapse of time was less than 0.1%.) | A+ (The amount of change of the orthogonal transmittance before and after the elapse of time was less than 0.5%.) | A+ (The amount of change of the orthogonal transmittance before and after the elapse of time was less than 0.05%.) | A+ (The amount of change of the orthogonal transmittance before and after the elapse of time was less than 0.1%.) | A+ (The amount of change of the degree of polarization before and after the elapse of time was less than 0.05%.) | A+ (The amount of change of the degree of polarization before and after the elapse of time was less than 1.0%.) | A+ (The amount of change of the degree of polarization before and after the elapse of time was less than 0.05%.) | A+ (The amount of change of the degree of polarization before and after the elapse of time was less than 0.1%.) | A+ (The amount of change of the orthogonal transmittance before and after the elapse of time was less than 0.1%.) | A+ (The amount of change of the orthogonal transmittance before and after the elapse of time was less than 0.5%.) | A+ (The amount of change of the orthogonal transmittance before and after the elapse of time was less than 0.05%.) | A+ (The amount of change of the orthogonal transmittance before and after the elapse of time was less than 0.1%.)
2 | CCOC(=O)Oc1c(Cc2ccccc2S(=O)(=O)[O-])c(=O)n(-c2ccccc2)c(=O)n1-c1ccccc1.[Na+] [Example compound D] | – | A (The haze was less than 0.3%.) | A+ (The amount of change of the degree of polarization before and after the elapse of time was less than 0.05%.) | A+ (The amount of change of the degree of polarization before and after the elapse of time was less than 1.0%.) | A+ (The amount of change of the degree of polarization before and after the elapse of time was less than 0.05%.) | A+ (The amount of change of the degree of polarization before and after the elapse of time was less than 0.1%.) | A+ (The amount of change of the orthogonal transmittance before and after the elapse of time was less than 0.1%.) | A+ (The amount of change of the orthogonal transmittance before and after the elapse of time was less than 0.5%.) | A+ (The amount of change of the orthogonal transmittance before and after the elapse of time was less than 0.05%.) | A+ (The amount of change of the orthogonal transmittance before and after the elapse of time was less than 0.1%.) | A+ (The amount of change of the degree of polarization before and after the elapse of time was less than 0.05%.) | A+ (The amount of change of the degree of polarization before and after the elapse of time was less than 1.0%.) | A+ (The amount of change of the degree of polarization before and after the elapse of time was less than 0.05%.) | A+ (The amount of change of the degree of polarization before and after the elapse of time was less than 0.1%.) | A+ (The amount of change of the orthogonal transmittance before and after the elapse of time was less than 0.1%.) | A+ (The amount of change of the orthogonal transmittance before and after the elapse of time was less than 0.5%.) | A+ (The amount of change of the orthogonal transmittance before and after the elapse of time was less than 0.05%.) | A+ (The amount of change of the orthogonal transmittance before and after the elapse of time was less than 0.1%.)
3 | COC(=O)Cc1c(Cc2ccc(S(=O)(=O)[O-])cc2S(=O)(=O)[O-])c(=O)[nH]c2ccccc12.[Na+].[Na+] [Example compound AJ] | – | A (The haze was less than 0.3%.) | A+ (The amount of change of the degree of polarization before and after the elapse of time was less than 0.05%.) | A+ (The amount of change of the degree of polarization before and after the elapse of time was less than 1.0%.) | A+ (The amount of change of the degree of polarization before and after the elapse of time was less than 0.05%.) | A+ (The amount of change of the degree of polarization before and after the elapse of time was less than 0.1%.) | A+ (The amount of change of the orthogonal transmittance before and after the elapse of time was less than 0.1%.) | A+ (The amount of change of the orthogonal transmittance before and after the elapse of time was less than 0.5%.) | A+ (The amount of change of the orthogonal transmittance before and after the elapse of time was less than 0.05%.) | A+ (The amount of change of the orthogonal transmittance before and after the elapse of time was less than 0.1%.) | A+ (The amount of change of the degree of polarization before and after the elapse of time was less than 0.05%.) | A+ (The amount of change of the degree of polarization before and after the elapse of time was less than 1.0%.) | A+ (The amount of change of the degree of polarization before and after the elapse of time was less than 0.05%.) | A+ (The amount of change of the degree of polarization before and after the elapse of time was less than 0.1%.) | A+ (The amount of change of the orthogonal transmittance before and after the elapse of time was less than 0.1%.) | A+ (The amount of change of the orthogonal transmittance before and after the elapse of time was less than 0.5%.) | A+ (The amount of change of the orthogonal transmittance before and after the elapse of time was less than 0.05%.) | A+ (The amount of change of the orthogonal transmittance before and after the elapse of time was less than 0.1%.)
